# Results from US20250277039A1 (PURDUE RESEARCH FOUNDATION, published 2025).
# Results are given in words; binding and its absence hold for the method and conditions named. Some results given as binding are weak or reduced against the parent protein; the word gives no strength. Tags and fused reporters may be left off the sequences shown.
# T1: His-tagged canine PD-L1 protein (6X His tagged extracellular domain of cPD-L1) (canine) (UniProt E2RKZ5)
# T1 sequence: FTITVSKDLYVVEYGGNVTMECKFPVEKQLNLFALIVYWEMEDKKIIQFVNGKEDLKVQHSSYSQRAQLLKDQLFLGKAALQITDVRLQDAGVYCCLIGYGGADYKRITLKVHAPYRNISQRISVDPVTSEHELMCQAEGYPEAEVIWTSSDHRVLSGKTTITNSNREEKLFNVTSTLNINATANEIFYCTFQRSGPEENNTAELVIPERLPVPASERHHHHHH
# B1: mPD-1-hFc protein (Fc fusion, mouse, UniProt Q02242 25-167, looked up)
# chain: LEVPNGPWRSLTFYPAWLTVSEGANATFTCSLSNWSEDLMLNWNRLSPSNQTEKQAAFCNGLSQPVQDARFQIIQLPNRHDFHMNILDTRRNDSGIYLCGAISLHPKAKIEESPGAELVVTERILETSTRYPSPSPKPEGRFQ
# notes: also called mouse PD-1; not shown: human Fc
# How the values were obtained:
# [1] = biological target: T1, His-tagged canine PD-L1 protein (6X His tagged extracellular domain of cPD-L1) (canine); experiment: plate assay: His-tagged PD-L1 on Ni-NTA 96-well plate, PD-1-hFc, HRP anti-human IgG Fc secondary, OD450 given as fold ratio
# [2] = biological target: T1, His-tagged canine PD-L1 protein (6X His tagged extracellular domain of cPD-L1) (canine); experiment: PD-L1-His on a Ni-NTA plate, PD-1-hFc detected with anti-human IgG Fc secondary (FIG. 3D)
binder,measurement,setting,value
B1,binding,[1],binds
same,binding,[2],binds
